Measurements: the supplement of paper PMC10849652
Some of the results follow. Residues, ends and D or L forms follow the SMILES beside them. *: point of attachment. Cbz = O=C(OCc1ccccc1)*

Amino acid sequences for entries named in this document (tags omitted). A change or cut given only in a name is not applied to a line headed by its entry.
UniProt Q9BXL7: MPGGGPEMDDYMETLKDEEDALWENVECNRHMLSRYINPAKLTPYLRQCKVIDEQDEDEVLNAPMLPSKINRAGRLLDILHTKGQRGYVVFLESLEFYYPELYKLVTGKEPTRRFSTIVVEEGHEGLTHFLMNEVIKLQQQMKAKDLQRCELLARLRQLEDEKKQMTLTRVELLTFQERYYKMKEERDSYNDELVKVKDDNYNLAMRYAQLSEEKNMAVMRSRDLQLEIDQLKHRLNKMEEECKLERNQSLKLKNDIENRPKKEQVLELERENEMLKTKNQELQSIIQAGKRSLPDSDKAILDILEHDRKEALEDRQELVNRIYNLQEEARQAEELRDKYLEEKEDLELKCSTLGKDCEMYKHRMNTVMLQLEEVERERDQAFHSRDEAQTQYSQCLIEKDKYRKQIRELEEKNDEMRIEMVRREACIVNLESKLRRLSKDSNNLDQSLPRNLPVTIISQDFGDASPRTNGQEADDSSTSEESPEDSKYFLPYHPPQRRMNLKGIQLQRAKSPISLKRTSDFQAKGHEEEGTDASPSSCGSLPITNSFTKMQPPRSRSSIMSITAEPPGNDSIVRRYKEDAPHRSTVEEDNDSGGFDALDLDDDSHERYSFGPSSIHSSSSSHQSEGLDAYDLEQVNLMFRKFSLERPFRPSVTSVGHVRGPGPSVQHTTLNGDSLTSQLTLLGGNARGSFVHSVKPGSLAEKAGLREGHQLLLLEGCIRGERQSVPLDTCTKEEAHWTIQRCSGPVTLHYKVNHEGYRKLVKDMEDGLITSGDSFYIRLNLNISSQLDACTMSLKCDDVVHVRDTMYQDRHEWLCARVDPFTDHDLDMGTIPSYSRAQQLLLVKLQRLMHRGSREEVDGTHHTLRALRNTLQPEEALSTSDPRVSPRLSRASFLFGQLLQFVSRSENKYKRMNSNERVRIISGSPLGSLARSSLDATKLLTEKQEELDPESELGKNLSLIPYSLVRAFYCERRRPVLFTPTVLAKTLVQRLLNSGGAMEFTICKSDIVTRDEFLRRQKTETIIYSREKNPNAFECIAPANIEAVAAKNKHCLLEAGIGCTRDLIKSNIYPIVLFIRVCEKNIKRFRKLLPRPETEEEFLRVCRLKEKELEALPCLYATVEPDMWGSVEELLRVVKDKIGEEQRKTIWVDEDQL
UniProt Q9H0C5: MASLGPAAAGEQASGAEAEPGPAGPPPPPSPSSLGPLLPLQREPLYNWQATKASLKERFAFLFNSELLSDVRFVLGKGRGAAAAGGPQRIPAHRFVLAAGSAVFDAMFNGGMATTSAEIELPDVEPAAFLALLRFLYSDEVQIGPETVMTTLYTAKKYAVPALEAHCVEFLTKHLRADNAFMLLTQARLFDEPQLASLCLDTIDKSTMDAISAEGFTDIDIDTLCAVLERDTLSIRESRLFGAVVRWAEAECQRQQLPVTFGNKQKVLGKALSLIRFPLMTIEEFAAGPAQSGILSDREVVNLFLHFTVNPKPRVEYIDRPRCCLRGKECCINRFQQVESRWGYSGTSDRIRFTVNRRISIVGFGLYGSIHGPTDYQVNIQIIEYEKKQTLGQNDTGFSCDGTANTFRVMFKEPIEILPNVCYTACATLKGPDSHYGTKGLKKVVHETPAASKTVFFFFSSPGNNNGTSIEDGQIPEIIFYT
UniProt Q9BRJ6: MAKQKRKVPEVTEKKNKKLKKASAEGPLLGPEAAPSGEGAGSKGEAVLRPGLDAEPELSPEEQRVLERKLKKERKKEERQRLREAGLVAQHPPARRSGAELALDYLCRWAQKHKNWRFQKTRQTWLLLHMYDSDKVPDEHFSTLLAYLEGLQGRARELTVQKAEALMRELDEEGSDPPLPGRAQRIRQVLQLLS
UniProt Q96HA4: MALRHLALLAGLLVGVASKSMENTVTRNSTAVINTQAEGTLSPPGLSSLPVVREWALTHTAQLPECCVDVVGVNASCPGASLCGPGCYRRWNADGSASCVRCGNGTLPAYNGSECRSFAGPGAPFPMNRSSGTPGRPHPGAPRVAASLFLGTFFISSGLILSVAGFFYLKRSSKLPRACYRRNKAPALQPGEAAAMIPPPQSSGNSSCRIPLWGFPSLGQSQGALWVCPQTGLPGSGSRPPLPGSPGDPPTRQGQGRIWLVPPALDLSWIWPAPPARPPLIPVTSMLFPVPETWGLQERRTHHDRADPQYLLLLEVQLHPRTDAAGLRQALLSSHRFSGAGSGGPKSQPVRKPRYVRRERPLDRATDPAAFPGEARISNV
UniProt Q01518, whole entry, looked up: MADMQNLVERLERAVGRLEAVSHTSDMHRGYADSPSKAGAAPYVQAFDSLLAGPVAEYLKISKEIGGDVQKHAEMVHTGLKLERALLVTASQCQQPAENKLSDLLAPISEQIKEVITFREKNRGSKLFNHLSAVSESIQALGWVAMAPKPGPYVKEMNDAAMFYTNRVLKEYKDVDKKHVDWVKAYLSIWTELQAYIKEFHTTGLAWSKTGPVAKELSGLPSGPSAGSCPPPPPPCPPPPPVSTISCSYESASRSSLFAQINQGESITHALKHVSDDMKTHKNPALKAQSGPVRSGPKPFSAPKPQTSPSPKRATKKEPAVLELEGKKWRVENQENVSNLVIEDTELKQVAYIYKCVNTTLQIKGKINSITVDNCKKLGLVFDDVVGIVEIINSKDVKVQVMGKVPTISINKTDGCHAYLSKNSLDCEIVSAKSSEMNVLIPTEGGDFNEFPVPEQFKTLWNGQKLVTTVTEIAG
UniProt Q9H7E9: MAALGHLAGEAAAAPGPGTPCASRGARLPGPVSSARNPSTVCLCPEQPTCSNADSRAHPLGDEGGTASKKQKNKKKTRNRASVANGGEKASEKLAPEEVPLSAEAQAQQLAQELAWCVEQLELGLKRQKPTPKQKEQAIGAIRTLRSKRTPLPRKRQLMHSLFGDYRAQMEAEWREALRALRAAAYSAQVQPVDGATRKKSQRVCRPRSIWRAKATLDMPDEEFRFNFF
UniProt P07451: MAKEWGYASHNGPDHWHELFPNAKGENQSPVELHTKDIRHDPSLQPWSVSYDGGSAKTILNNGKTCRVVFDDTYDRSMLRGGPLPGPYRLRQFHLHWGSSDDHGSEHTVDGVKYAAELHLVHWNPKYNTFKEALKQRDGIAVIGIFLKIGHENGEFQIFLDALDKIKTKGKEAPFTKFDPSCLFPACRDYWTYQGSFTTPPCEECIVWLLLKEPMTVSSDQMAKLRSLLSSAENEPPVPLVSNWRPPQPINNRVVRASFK
UniProt Q7Z7L8: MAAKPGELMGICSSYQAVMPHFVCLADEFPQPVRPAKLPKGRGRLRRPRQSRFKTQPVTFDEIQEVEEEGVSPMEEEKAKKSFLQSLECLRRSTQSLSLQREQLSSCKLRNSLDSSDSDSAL
UniProt P02748: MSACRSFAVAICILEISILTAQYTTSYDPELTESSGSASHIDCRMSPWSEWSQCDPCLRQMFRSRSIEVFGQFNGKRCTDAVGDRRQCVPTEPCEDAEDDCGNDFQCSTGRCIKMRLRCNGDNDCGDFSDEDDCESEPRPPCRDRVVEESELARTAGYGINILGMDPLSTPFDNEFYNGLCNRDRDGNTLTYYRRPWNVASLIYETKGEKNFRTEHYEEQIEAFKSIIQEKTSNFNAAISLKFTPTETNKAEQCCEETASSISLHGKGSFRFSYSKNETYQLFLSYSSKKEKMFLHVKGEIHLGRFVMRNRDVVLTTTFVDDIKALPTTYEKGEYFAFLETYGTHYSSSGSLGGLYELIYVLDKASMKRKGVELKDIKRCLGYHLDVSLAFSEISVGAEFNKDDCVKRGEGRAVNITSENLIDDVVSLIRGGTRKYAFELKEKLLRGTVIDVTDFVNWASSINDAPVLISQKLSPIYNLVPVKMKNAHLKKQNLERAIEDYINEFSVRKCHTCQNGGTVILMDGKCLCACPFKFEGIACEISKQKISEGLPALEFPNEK
UniProt Q9BSF8: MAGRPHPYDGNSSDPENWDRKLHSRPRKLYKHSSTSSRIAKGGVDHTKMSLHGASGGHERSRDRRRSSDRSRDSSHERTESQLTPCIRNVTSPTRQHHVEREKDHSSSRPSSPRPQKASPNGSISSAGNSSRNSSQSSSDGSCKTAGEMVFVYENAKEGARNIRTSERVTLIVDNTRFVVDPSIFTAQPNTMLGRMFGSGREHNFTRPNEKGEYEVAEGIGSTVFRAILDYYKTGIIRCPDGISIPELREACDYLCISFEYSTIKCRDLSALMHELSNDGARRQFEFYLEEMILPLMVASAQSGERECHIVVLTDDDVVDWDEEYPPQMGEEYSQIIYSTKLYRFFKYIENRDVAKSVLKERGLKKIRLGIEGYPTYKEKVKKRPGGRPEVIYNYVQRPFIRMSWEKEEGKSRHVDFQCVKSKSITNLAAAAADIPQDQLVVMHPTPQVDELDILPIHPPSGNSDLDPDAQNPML
UniProt Q96GV9: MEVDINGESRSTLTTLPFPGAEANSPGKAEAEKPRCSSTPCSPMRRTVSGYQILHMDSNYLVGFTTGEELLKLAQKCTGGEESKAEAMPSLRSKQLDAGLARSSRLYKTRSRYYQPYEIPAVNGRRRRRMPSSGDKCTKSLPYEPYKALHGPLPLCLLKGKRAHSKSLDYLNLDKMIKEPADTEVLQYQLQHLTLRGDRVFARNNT
UniProt Q9BX69: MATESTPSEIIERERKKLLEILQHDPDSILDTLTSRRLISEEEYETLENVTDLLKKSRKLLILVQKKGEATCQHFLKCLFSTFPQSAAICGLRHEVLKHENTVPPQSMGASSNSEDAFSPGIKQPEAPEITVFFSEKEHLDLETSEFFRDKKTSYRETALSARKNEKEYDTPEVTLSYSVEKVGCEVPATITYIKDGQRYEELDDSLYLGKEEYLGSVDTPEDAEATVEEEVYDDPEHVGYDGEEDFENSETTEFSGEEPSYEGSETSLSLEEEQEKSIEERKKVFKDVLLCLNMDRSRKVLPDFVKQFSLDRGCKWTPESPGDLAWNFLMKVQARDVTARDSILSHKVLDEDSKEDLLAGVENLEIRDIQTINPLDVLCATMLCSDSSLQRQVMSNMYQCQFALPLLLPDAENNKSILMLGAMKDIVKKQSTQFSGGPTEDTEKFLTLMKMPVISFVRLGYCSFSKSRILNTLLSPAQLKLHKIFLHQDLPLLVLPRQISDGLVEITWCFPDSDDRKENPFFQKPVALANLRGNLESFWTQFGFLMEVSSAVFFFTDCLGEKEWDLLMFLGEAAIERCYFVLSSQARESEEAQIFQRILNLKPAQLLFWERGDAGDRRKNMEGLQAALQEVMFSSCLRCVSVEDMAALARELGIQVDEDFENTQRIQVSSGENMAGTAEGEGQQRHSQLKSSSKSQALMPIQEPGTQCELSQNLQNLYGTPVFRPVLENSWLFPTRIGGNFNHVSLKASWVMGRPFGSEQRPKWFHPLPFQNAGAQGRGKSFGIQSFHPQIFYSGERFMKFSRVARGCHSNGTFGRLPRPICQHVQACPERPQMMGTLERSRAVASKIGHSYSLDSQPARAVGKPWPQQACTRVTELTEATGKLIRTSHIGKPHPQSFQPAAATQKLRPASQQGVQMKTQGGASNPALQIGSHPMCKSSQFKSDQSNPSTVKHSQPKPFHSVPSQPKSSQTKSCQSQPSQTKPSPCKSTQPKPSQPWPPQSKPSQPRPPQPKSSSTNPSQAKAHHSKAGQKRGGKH
UniProt Q6PH81: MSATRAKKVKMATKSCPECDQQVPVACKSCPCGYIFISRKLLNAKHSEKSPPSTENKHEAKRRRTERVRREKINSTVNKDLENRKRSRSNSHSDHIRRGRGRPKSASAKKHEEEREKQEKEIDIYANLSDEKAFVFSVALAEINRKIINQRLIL
UniProt Q9BTV7: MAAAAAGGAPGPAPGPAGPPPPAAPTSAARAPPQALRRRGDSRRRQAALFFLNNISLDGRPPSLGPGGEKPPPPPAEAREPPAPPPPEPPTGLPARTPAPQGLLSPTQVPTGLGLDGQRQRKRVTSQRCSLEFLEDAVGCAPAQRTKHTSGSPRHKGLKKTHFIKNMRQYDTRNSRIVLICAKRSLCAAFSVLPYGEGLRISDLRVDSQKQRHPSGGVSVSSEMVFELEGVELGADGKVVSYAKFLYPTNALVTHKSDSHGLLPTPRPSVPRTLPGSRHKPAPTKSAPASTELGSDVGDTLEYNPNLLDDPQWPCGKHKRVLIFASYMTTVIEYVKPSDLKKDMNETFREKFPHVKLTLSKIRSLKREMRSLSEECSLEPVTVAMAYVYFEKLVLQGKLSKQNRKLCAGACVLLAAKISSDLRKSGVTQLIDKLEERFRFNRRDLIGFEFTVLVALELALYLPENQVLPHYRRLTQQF
UniProt Q5JPI3: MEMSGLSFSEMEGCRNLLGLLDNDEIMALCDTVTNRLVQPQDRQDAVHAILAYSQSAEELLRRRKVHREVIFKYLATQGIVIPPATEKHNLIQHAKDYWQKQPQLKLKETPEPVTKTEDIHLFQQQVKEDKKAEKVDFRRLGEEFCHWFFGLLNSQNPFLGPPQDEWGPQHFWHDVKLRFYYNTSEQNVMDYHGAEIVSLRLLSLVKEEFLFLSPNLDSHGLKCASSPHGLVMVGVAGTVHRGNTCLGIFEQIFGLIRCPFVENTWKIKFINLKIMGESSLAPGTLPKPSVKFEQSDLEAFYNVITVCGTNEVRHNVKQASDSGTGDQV

Columns and labels:
Assay in all cases: log2 fold change, soluble protein after heating vs DMSO (PISA); higher = thermal stabilisation; K562 cells, 10 uM, 30 min; active = over 0.2 and 3.5 SD of the protein, either way, in both replicates (recomputed)
[1] = compound: C/C(=N\NC(=O)C1=CC(=CC=C1)S(=O)(=O)N2CCOCC2)/C3=C(C=CC(=C3)Cl)O
Procedure, shortened: (§1)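 K562 cells (2×10^6 cells/mL) were treated with 10 μM compound for 30 min, and aliquots were heated for 3 min over 48°C-58°C. Pooled aliquots were extracted in PBS with 0.5% NP-40 at 4°C, and the supernatant after 21,000xg for 90 min was measured by TMTpro 16plex LC-MS/MS with channel sums equalised. Reported thermal stability, relative to control samples and from duplicates, is a log2 fold change.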

[2] = compound: C1=CC(=C(C=C1Cl)C2=NC3=NC=CN=C3C(=N2)NC4=CC=NC=C4)F
Procedure, shortened: as §1

[3] = compound: C1=CC2=C(C=CC(=C2)/C=C\3/C(=O)NC(=NCC4=CC=CS4)S3)N=C1
Procedure, shortened: as §1

[4] = compound: C1=CC2=NC=CN=C2C=C1/C=C/3\C(=O)NC(=O)S3
Procedure, shortened: as §1

[5] = compound: C1=CC=C(C=C1)C2=NC(=C(N2)C3=CC=NC=C3)C4=CC(=C(C=C4)Cl)O
Procedure, shortened: as §1

[6] = compound: C1=CC=C2C(=C1)C3=NNC4=CC=CC(=C43)C2=O
Procedure, shortened: as §1

[7] = compound: C1CCN(C1)C(=O)NC2=CC=CC(=C2)NC3=NC=C(C(=N3)NCCC4=CN=CN4)Br
Procedure, shortened: as §1

[8] = compound: C1CN(CCC1(CC2=CC=C(C=C2)Cl)N)C3=NC=NC4=C3C=CN4
Procedure, shortened: as §1

IRAK-1-4 Inhibitor I = compound: C1COCCN1CCN2C3=CC=CC=C3N=C2NC(=O)C4=CC(=CC=C4)[N+](=O)[O-] [IRAK-1-4 Inhibitor I]
Procedure, shortened: as §1

ibrutinib = compound: C=CC(=O)N1CCC[C@@H](n2nc(-c3ccc(Oc4ccccc4)cc3)c3c(N)ncnc32)C1 [ibrutinib]
Procedure, shortened: as §1

[9] = compound: CC(=O)c1cnc2ccc(-c3cc(Cl)c(O)c(Cl)c3)nc2c1N[C@H]1CC[C@H](CN(C)C)CC1
Procedure, shortened: as §1

ralimetinib = compound: CC(C)(C)Cn1c(N)nc2ccc(-c3[nH]c(C(C)(C)C)nc3-c3ccc(F)cc3)nc21 [ralimetinib]
Procedure, shortened: as §1

[10] = compound: CC(C)(O)CC(=O)NCCn1ccc2ncnc(Nc3ccc(Oc4cccc(C(F)(F)F)c4)c(Cl)c3)c21
Procedure, shortened: as §1

[11] = compound: CC(C)C[C@@H](C=O)NC(=O)[C@H](CC(C)C)NC(=O)[C@H](CC(C)C)NC(=O)OCc1ccccc1
Procedure, shortened: as §1

pinometostat = compound: CC(C)N(C[C@H]1O[C@@H](n2cnc3c(N)ncnc32)[C@H](O)[C@@H]1O)[C@H]1C[C@@H](CCc2nc3cc(C(C)(C)C)ccc3[nH]2)C1 [pinometostat]
Procedure, shortened: as §1

[12] = compound: CC1=C(C2=C(C=C1)C(=O)C3=CC=CC=C3N2CCCN)C
Procedure, shortened: as §1

[13] = compound: CC1=C(C(CC(=O)N1)C2=CC=C(C=C2)C(F)(F)F)C(=O)NC3=C(C=C4C(=C3)C=NN4)F
Procedure, shortened: as §1

Measured: log2 fold change

CARD19 isoform 2 (UniProt Q96LW7)
inactive: [1] -0.07 | [2] -0.053 | [3] 0 | [4] -0.035 | [5] -0.01 | [6] 0.031 | [7] -0.153 | [8] -0.025 | IRAK-1-4 Inhibitor I 0.01 | ibrutinib -0.002 | [9] -0.02 | ralimetinib -0.049 | [10] -0.181 | [11] 0.128 | pinometostat 0.063 | [12] 0.106

CARD11 (UniProt Q9BXL7)
inactive: [1] -0.125 | [2] -0.208 | [3] 0.26 | [6] -0.052 | IRAK-1-4 Inhibitor I -0.033 | [9] 0.048 | [10] -0.054 | pinometostat -0.093

BTBD1 (UniProt Q9H0C5)
inactive: [5] -0.135 | ralimetinib -0.027 | [11] 0.225

C7orf50 (UniProt Q9BRJ6)
inactive: [1] -0.119 | [3] -0.029 | [5] 0.023 | [6] 0.037 | [7] 0.06 | [8] 0.065 | [9] 0.077 | ralimetinib 0.185 | [11] 0.1 | [12] -0.085

C1orf159 isoform 4 (UniProt Q96HA4)
inactive: [4] -0.05 | ibrutinib -0.071

C16orf70 (UniProt Q9BSU1)
inactive: [1] -0.189 | [2] 0.25 | [3] 0.313 | [6] 0.058 | IRAK-1-4 Inhibitor I 0.145 | [9] -0.154 | [10] -0.151 | pinometostat -0.012

CAP1 isoform 2 (UniProt Q01518)
inactive: [4] 0.226 | IRAK-1-4 Inhibitor I 0.048 | ibrutinib 0 | pinometostat -0.139

C4orf46 (UniProt Q504U0)
inactive: [13] -0.08

C8orf33 isoform 2 (UniProt Q9H7E9)
inactive: [1] -0.185 | [2] -0.488 | [3] -0.408 | [4] -0.112 | [5] 0.252 | [6] -0.037 | [7] 0.079 | [8] -0.191 | IRAK-1-4 Inhibitor I -0.363 | ibrutinib 0.088 | [9] 0.088 | ralimetinib 0.132 | [10] 0.139 | [11] 0.146 | pinometostat 0.769 | [13] 0.078 | [12] -0.568

CA3 (UniProt P07451)
inactive: [2] -0.253 | [5] 0.009 | ralimetinib -0.125 | [10] -0.055 | [11] 0.001

BSN (UniProt Q9UPA5)
inactive: [1] 0.063 | [3] -0.022 | [6] -0.017 | [9] -0.031

C11orf96 (UniProt Q7Z7L8)
inactive: [2] 0.126 | [5] 0.003 | IRAK-1-4 Inhibitor I -0.122 | ralimetinib -0.044 | [10] -0.201 | [11] 0.281 | pinometostat 0.092

CA1 (UniProt E5RIF9)
inactive: [2] 0.096 | [4] 0.135 | [7] 0.014 | [8] -0.453 | ibrutinib 0.161 | [10] -0.052 | [12] -0.02

C9 (UniProt P02748)
inactive: [2] -0.101 | [5] -0.134 | [7] 0.077 | [8] 0.081 | ralimetinib 0.052 | [10] 0.279 | [11] 0.026 | [12] -0.277

CAD (UniProt H7BZB3)
inactive: [1] -0.061 | [3] 0.242 | [6] -0.058 | [9] -0.322

BTBD10 isoform 2 (UniProt Q9BSF8)
inactive: [1] -0.017 | [3] 0.035 | [6] -0.048 | [9] -0.006

C3orf86 (UniProt P0DN24)
inactive: [13] -0.255

C5orf30 (UniProt Q96GV9)
active: [9] -0.917
inactive: [1] 0.267 | [2] -0.056 | [3] 0.062 | [6] -0.347 | [7] 0.01 | [8] 0.128 | [10] 0.059 | [12] -0.284

CARD6 (UniProt Q9BX69)
inactive: [5] -0.332 | ralimetinib 0.244 | [11] 0.243

C16orf87 (UniProt Q6PH81)
inactive: [2] 0.189 | [4] 0.067 | ibrutinib -0.035 | [10] 0.168 | [13] 0.056

CALR3 (UniProt Q96L12)
inactive: IRAK-1-4 Inhibitor I -0.019 | pinometostat 0.052

C5 (UniProt P01031)
inactive: [2] 0.024 | [7] 0.048 | [8] 0.187 | IRAK-1-4 Inhibitor I 0.07 | [10] 0.15 | pinometostat -0.06 | [12] -0.116

2 records picked at random from those above:
C16orf87 (UniProt Q6PH81)
inactive: [2] 0.189 | [4] 0.067 | ibrutinib -0.035 | [10] 0.168 | [13] 0.056

C5orf30 (UniProt Q96GV9)
active: [9] -0.917
inactive: [1] 0.267 | [2] -0.056 | [3] 0.062 | [6] -0.347 | [7] 0.01 | [8] 0.128 | [10] 0.059 | [12] -0.284

Later entries.

CABLES2 (UniProt Q9BTV7)
inactive: IRAK-1-4 Inhibitor I -0.034 | pinometostat 0.081

C9orf16 (UniProt Q9BUW7)
inactive: [13] 0.044

C3orf38 (UniProt Q5JPI3)
inactive: [1] -0.044 | [2] 0.142 | [3] -0.137 | [4] 0.093 | [5] -0.154 | [6] 0.175 | [7] -0.043 | [8] 0 | IRAK-1-4 Inhibitor I -0.165 | ibrutinib -0.064 | [9] -0.072 | ralimetinib 0 | [10] -0.035 | [11] 0.077 | pinometostat -0.121 | [13] 0.02 | [12] -0.086
